Test results published in US3936463A, “Benzomorphanes” (priority 1972, dated 1976).

What was measured:
[1] = test system: rat tails; conditions: rats, s.c.; calculated from LD 50 and ED 50
Protocol: (§1) The numbering of the compounds is the same as the numbering of the preparative examples. […] The ED50 and LD50 were calculated relative to the base.

[2] = in vivo; conditions: rat, sc
Protocol: as §1

CN1CC[C@]23c4c5ccc(O)c4O[C@H]2[C@@H](O)C=C[C@H]3[C@H]1C5 [Morphine, reference compound]
Therapeutic index LD 50 / ED 50 [1]: 69 | LD50 [2]: 122 mg/kg
